Values from PubChem BioAssay AID504786 (Drosophila RNAi Screening Center, 2011).

- Purpose: 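Positive regulators of HIF-driven reporter output in Drosophila cells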 (primary screen)
- Cell system: Drosophila S2 cells with a stable HIF luciferase reporter
- Reagent: long dsRNA against Drosophila genes, about 0.2 µg dsRNA per well of a 384-well plate
- Timing: three days of knock-down, then 20 h of DFO before reading
- Challenge: desferrioxamine (DFO) at 100 µM, an iron chelator that mimics hypoxia, for 20 h
- Measured: 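Firefly luciferase driven by the mouse ldh-a hypoxia-response element, measured after 20 h of 100 µM DFO; z-scores per plate, higher means more signal lost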
- Scale: z-score: higher = stronger loss of HIF reporter signal
The deposit covers about 21,000 reagents; below is a random part of those that have a named target and a result. 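Primary screen; positive scores mean lost reporter signal, so the sign may be inverted from the usual convention.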 A plus sign joins genes that one reagent is predicted to hit. Not all columns of the deposit are shown. No sequences are given here.

no.	gene	DRSC id	z-score, replicate 1	z-score, replicate 2	z-score, replicate 3
1	RpS7 (GeneID 43594)	DRSC15394	5	6.9	
2	lectin-33A (GeneID 53516)	DRSC02529	-0.2	-0.8	
3	net (GeneID 45339)	DRSC00309	-0.1	-0.2	
4	CG17010 (GeneID 34650)	DRSC02559	-0.3	-0.5	
5	CG5958 (GeneID 34022)	DRSC02915	-0.3	-0.2	
6	CG30419 (GeneID 37879)	DRSC04208	-0.1	0.1	-0.3
7	CG30419 (GeneID 37879)	DRSC04209	-0.1	0.1	-0.1
8	kni (GeneID 40287)	DRSC11891	0.1	-0.4	
9	CG14212 (GeneID 32964)	DRSC19568	-0.2	-0.3	
10	SCAP (GeneID 35529)	DRSC04869	-0.1	-0.5	
11	SCAP (GeneID 35529)	DRSC04907	-0.3	-0.5	
12	Atf6 (GeneID 35480)	DRSC04743	-0.1	-0.2	
13	Atf6 (GeneID 35480)	DRSC04889	-0.2	-0.1	
14	CG30411 (GeneID 246600)	DRSC04004	-0.2	-0.3	
15	zyd (GeneID 3354992)	DRSC20716	-0.1	-0.3	
16	CG11398 (GeneID 31070)	DRSC18625	-0.4	0.3	
17	CG1136 (GeneID 38479)	DRSC08184	-0.3	-0.6	
18	gol (GeneID 38006)	DRSC04689	-0.2	-0.6	
19	CG17230 (GeneID 41376)	DRSC15203	-0.4	-0.5	
20	CG6508 (GeneID 34493)	DRSC02963	-0.3	-0.3	
21	CG18808 (GeneID 59169)	DRSC08539	-0.2	0.6	
22	miple1 (GeneID 38047)	DRSC08722	-0.4	-0.3	
23	CG33290 (GeneID 2768993)	DRSC11493	0.1	0.5	
24	mtt (GeneID 35832)	DRSC05106	0	-0.2	
25	mtt (GeneID 35832)	DRSC05107	1.3	1	
26	mtt (GeneID 35832)	DRSC06753	-0.3	-0.2	
27	mtt (GeneID 35832)	DRSC07235	-0.4	-0.4	
28	CG9400 (GeneID 32385)	DRSC20182	-0.3	0	
29	mbt (GeneID 32631)	DRSC20348	-0.3	-0.5	
30	CG13228 (GeneID 36178)	DRSC06348	-0.5	-0.4	
31	CG11999 (GeneID 40637)	DRSC12185	-0.3	0.2	
32	CG9062 (GeneID 36199)	DRSC07327	0	0	
33	AhcyL2 (GeneID 42043)	DRSC14107	-0.4	-0.4	
34	Crag (GeneID 31800)	DRSC18454	-0.4	-0.5	
35	CG13083 (GeneID 35230)	DRSC02187	-0.4	-0.6	
36	CG42821 + CG42822	DRSC13231	-0.3	-0.3	
37	CG42821 + CG42822	DRSC13232	-0.4	-0.2	
38	RpL14 (GeneID 38983)	DRSC11269	8.2	6	
39	wam (GeneID 42755)	DRSC15171	-0.5	-0.6	
40	CG32198 (GeneID 317909)	DRSC09553	-0.4	-0.3	
41	CG32551 (GeneID 318085)	DRSC19259	0	0.4	
42	CG32277 (GeneID 38393)	DRSC08196	-0.4	-0.8	
43	CG4098 (GeneID 39854)	DRSC10399	-0.3	-0.4	
44	Cp36 (GeneID 31787)	DRSC18452	-0.3	-0.5	
45	CG5674 (GeneID 35072)	DRSC02874	-0.2	2.5	
46	CG6962 (GeneID 41436)	DRSC16153	0.7	2.7	
47	Ets97D (GeneID 43236)	DRSC16665	-0.1	-0.5	
48	CG6421 (GeneID 46813)	DRSC07420	-0.3	0.1	
49	Sid (GeneID 43390)	DRSC16588	-0.3	-0.5	
50	CG13248 (GeneID 40254)	DRSC11696	-0.3	-0.3	
51	flw (GeneID 44289)	DRSC17992	-0.2	0.2	
52	flw (GeneID 44289)	DRSC18774	0.6	0.3	

Just “z-score, replicate 1” (8 entries from above):
gol (GeneID 38006) [DRSC04689] = -0.2
CG17230 (GeneID 41376) [DRSC15203] = -0.4
CG6508 (GeneID 34493) [DRSC02963] = -0.3
CG18808 (GeneID 59169) [DRSC08539] = -0.2
miple1 (GeneID 38047) [DRSC08722] = -0.4
CG33290 (GeneID 2768993) [DRSC11493] = 0.1
mtt (GeneID 35832) [DRSC05106] = 0
mtt (GeneID 35832) [DRSC05107] = 1.3

The results go on.
no.	gene	DRSC id	z-score, replicate 1	z-score, replicate 2	z-score, replicate 3
53	CG17784 (GeneID 42909)	DRSC15268	0	-0.3	
54	DIP-alpha (GeneID 31322)	DRSC17891	-0.7	-0.4	
55	DIP-alpha (GeneID 31322)	DRSC17892	1.2	1.2	
56	Ekar (GeneID 43806)	DRSC17161	-0.3	-0.4	
57	PI31 (GeneID 36277)	DRSC07306	-0.4	-0.5	
58	UK114 (GeneID 34897)	DRSC01973	-0.1	-0.2	
59	CG3527 (GeneID 31387)	DRSC18307	-0.1	1.5	
60	CG4679 (GeneID 36466)	DRSC06880	1.3	0.3	
61	CG13857 (GeneID 42627)	DRSC14707	-0.7	-0.2	
62	Pvr (GeneID 34127)	DRSC03080	4.5	2.9	
63	CG3609 (GeneID 33421)	DRSC00620	-0.1	0	
64	bai (GeneID 42996)	DRSC14388	-0.4	-0.4	
65	Eig71Ea (GeneID 39700)	DRSC11148	-0.2	-0.6	
66	Cyp4g1 (GeneID 30986)	DRSC18459	-0.2	-0.7	
67	Eig71Ej (GeneID 39711)	DRSC11157	-0.1	-0.6	
68	APC7 (GeneID 31594)	DRSC17937	-0.4	-0.5	
69	CG1368 (GeneID 32361)	DRSC19537	-0.4	0	
70	Wdr82 (GeneID 34153)	DRSC02595	-0.1	-0.5	-0.1
71	Cth (GeneID 37143)	DRSC07422	0.3	-0.3	
72	CG8526 (GeneID 41208)	DRSC16438	-0.4	-0.5	
73	alpha-Est4aPsi (GeneID 3772290)	DRSC12473	-0.2	-0.4	
74	svp (GeneID 41491)	DRSC12899	-0.2	-0.3	
75	svp (GeneID 41491)	DRSC15311	4.4	6	
76	svp (GeneID 41491)	DRSC17075	-0.4	-0.6	-0.5
77	CG4849 (GeneID 43358)	DRSC15662	3.8	5	
78	tap (GeneID 39935)	DRSC11402	-0.5	-0.4	
79	Cyp6a17 (GeneID 45556)	DRSC07378	-0.1	-0.2	
80	CG9356 (GeneID 41122)	DRSC16476	-0.4	-0.6	
81	ldd (GeneID 318066)	DRSC20558	-0.2	-0.3	
82	Cnb (GeneID 38258)	DRSC08569	-0.3	-0.4	
83	CG15673 (GeneID 37459)	DRSC04263	0	-0.5	
